The values that follow come from publication PMC7819943, “Rice protein-binding microarrays: a tool to detect cis-acting elements near promoter regions in rice”.

Chains of the proteins cited; added tags and fusions are not shown.
UniProt Q0JBA9, entry or part of it: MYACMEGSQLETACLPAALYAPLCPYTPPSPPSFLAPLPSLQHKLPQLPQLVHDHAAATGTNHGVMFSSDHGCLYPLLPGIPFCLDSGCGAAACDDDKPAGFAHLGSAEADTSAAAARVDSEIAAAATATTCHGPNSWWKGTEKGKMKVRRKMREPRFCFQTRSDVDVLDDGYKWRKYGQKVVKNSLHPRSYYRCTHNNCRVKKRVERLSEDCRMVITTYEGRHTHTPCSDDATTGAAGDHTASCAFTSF

The other results are listed elsewhere or left out.

This experiment concerns the target OsWRKY34 (Oryza sativa, UniProt Q0JBA9 1-250). Description: protein-binding microarray (RPBM); PBS, 2% BSA, 51.3 ng/ul salmon testes DNA, 50 uM zinc acetate, 200 nM TF, 25 C, 1 h; high values mean tight binding. To be noted: protein: recombinant; tags: N-terminal polyhistidine and DsRed monomer fusion (pET32a); label: CyDye5-dUTP incorporated in the synthesized complementary strand; 3' TTTTT single-stranded linker to array surface; dsDNA, one strand shown. Put shortly:
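An Axon 4000B scanner gave the binding signal as per-feature fluorescence intensity in arbitrary units. This followed washing of a custom Agilent array that had been incubated for 1 h at 25 °C with 200 nM protein in PBS, 2% BSA, salmon testes DNA and 50 µM zinc acetate. The proteins were transcription factors fused at the N-terminus to polyhistidine and DsRed, expressed in E. coli BL21-CodonPlus and purified on Ni–NTA.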
With “AATACTCTTATTTTTCTTTATCGAGATACATGCTTACGAACGGAGTCACCTAGTGCAG”, the binding signal was 8260 fluorescence intensity (a.u.). The figure for “AGAAGTAGAGTTTGTTACCGGTGTGTGTGTGGCGTCACTCCGGAGTCACCTAGTGCAG” is 12100 fluorescence intensity (a.u.).

For the sequence “CCCTTGACAGCACAGAGGCAACAGCAAAACACACTCTCATCGGAGTCACCTAGTGCAG”, the binding signal is 8580 fluorescence intensity (a.u.). Then “GGCTGATGAATTTCTCTGGCACCGTGTCGAACAGCTTCTTCGGAGTCACCTAGTGCAG”, with 8470 fluorescence intensity (a.u.); and “CACAAACTTTCGTTTACCCGTGTACCATTCCATCCATGTTCGGAGTCACCTAGTGCAG”, with 10600 fluorescence intensity (a.u.). Then “TCATCTCTCCTCTGCCGCCGCGCGCCGCCTTCAATCCTCCCGGAGTCACCTAGTGCAG”, with 8040 fluorescence intensity (a.u.). Then “AAAAGTCTCTCATCCTTATGTGATTCCTGAAGTTATTAATCGGAGTCACCTAGTGCAG”, with 8320 fluorescence intensity (a.u.). Take “AATCCTCTTTTTCTTTCAGACAATCAAGAGCTAACACTGTCGGAGTCACCTAGTGCAG”: the binding signal was 8930 fluorescence intensity (a.u.). The figure for “AACTACTCTCACAATTTTTATAGTACATGCATTTTTCCTTCGGAGTCACCTAGTGCAG” is 8190 fluorescence intensity (a.u.); for “GGGAATATTAGTGGGATGGGGATGAGGAATTGAGGAAGAACGGAGTCACCTAGTGCAG” it is 13400 fluorescence intensity (a.u.). Then “ACATCGCACTGTACTGTCCTTGTCCCCTTCTCCAACATCACGGAGTCACCTAGTGCAG”, with 9030 fluorescence intensity (a.u.). For the sequence “ACACAACAGCAGAACTTATGTATATGTACGTTTTCTTAAACGGAGTCACCTAGTGCAG”, the binding signal was 8320 fluorescence intensity (a.u.). In the case of “TAATGTATCCAAATACGTTTTCTTACTTTTCTTTCCTTTCCGGAGTCACCTAGTGCAG”, the binding signal was 9330 fluorescence intensity (a.u.).

In the case of “TGCACAGTGCAAACCATTAACCAGCGGCATTATTATTATTCGGAGTCACCTAGTGCAG”, the binding signal is 8100 fluorescence intensity (a.u.). The figure for “CCGTCGCGTTCGCCGACTCCGGCAGCTTCATATTCCTCGTCGGAGTCACCTAGTGCAG” is 8800 fluorescence intensity (a.u.).

Consider “GGGAGGTGTTGTTTTTTTTTTTTTTATCCCTTCCCATTTTCGGAGTCACCTAGTGCAG”, for which the binding signal is 15300 fluorescence intensity (a.u.).

Consider “TCACTTACACCCGCTTACACCTAACTTATATATATAATTACGGAGTCACCTAGTGCAG”, for which the binding signal is 8230 fluorescence intensity (a.u.). In the case of “CATGGAGGGAGGGAGGGAGGCGGAAGCGGAGGCGTGGGAGCGGAGTCACCTAGTGCAG”, the binding signal was 9980 fluorescence intensity (a.u.). Regarding “GGGTTTCAATCATTTAGGTGGACGTCCACTCATTTATTGCCGGAGTCACCTAGTGCAG”, the binding signal was 8640 fluorescence intensity (a.u.). Then “ATCGCCTTTGACCGCTGACCAAGCCAGACCAGTAGTAGTACGGAGTCACCTAGTGCAG”, with 8410 fluorescence intensity (a.u.); and “TGTTTTATTTTTAGGATACTTCTACCTTTTTTCGCTTTGACGGAGTCACCTAGTGCAG”, with 9510 fluorescence intensity (a.u.); and “TAGACTCTAGCCTGTTCCGCCCTCTGCTCCATGTACGGTCCGGAGTCACCTAGTGCAG”, with 8470 fluorescence intensity (a.u.). For “GATTTTTTTTCAAACTTCTTTACGTTTAACCTAATTTATACGGAGTCACCTAGTGCAG”, the binding signal is 8180 fluorescence intensity (a.u.). The figure for “CCAACAAACACCGCGCCTCGCCTCGTCTCCTCCGATAGCGCGGAGTCACCTAGTGCAG” is 8150 fluorescence intensity (a.u.).

As for “CTTCACGTGTAAGTTTTAAAATTTATATTGGATTTGGTCTCGGAGTCACCTAGTGCAG”, the binding signal was 8020 fluorescence intensity (a.u.). The figure for “TGTTGCTGTTGCACATATAGTTTCTTCTTGGTCTTTCCAACGGAGTCACCTAGTGCAG” is 8480 fluorescence intensity (a.u.); for “GATCTATCATTCCATCTAGGCATGTCTTCGTGTATCATTCCGGAGTCACCTAGTGCAG” it is 9300 fluorescence intensity (a.u.); for “GAGGGGAGGAAGAAGAGGTGGGTGAGAATGACACGTGGGGCGGAGTCACCTAGTGCAG” it is 10600 fluorescence intensity (a.u.).

As for “ACTATCGGTACATATCTTATTGACATCATGCCTATATGACCGGAGTCACCTAGTGCAG”, the binding signal is 10200 fluorescence intensity (a.u.).

As for “TCTTGCGAGTTTCCTTAGCCCACTCTTCTTCTTCTTTATCCGGAGTCACCTAGTGCAG”, the binding signal was 10700 fluorescence intensity (a.u.). The figure for “ACACGTTAAAACCCTTTTCCGGTGGCCGGTGTAACGCGCGCGGAGTCACCTAGTGCAG” is 8080 fluorescence intensity (a.u.). “ATCCGTAACTCTGACAAGCTCGAGTTGCTCGTATATTTTACGGAGTCACCTAGTGCAG”: the binding signal is 8640 fluorescence intensity (a.u.). Take “CACATATATATACACGATGGCGCCAAACACATTTCTCAACCGGAGTCACCTAGTGCAG”: the binding signal was 9310 fluorescence intensity (a.u.). Then “ATTTTTACGTCAAACATTGTTACCATTTTTGTTTTTCCTCCGGAGTCACCTAGTGCAG”, with 8160 fluorescence intensity (a.u.). The figure for “TCCGTGTTTGTAATGTGTTTCCTTAAAAAAATTAATGTTCCGGAGTCACCTAGTGCAG” is 8860 fluorescence intensity (a.u.). In the case of “CACATCTACGTCCTTGTCCACGCGGTGTTAAAATTTCACCCGGAGTCACCTAGTGCAG”, the binding signal is 9830 fluorescence intensity (a.u.). Then “CTTTAATTTTTTTTGAATTCATTTCTTCACGTAAACATCCCGGAGTCACCTAGTGCAG”, with 11300 fluorescence intensity (a.u.); and “GAAGCCCAATTGTGTACGTACTGCTTTTTTTGGAATGGAACGGAGTCACCTAGTGCAG”, with 10400 fluorescence intensity (a.u.). Then “GTTCTTGTTTTCTTCCTTTTTGATAATACTTCGCCATTTTCGGAGTCACCTAGTGCAG”, with 9260 fluorescence intensity (a.u.); and “CTTATCAATCTGTTTATTAATATTTACGCAGTATTGCAGTCGGAGTCACCTAGTGCAG”, with 9020 fluorescence intensity (a.u.); and “GCTTGTGTGTTTTGCACGTCGACTAACTAACGGCCTCTCACGGAGTCACCTAGTGCAG”, with 9330 fluorescence intensity (a.u.). Then “TCTCTGTTTTTTGGCAGTTTGTATGCCAACATGTGCTAATCGGAGTCACCTAGTGCAG”, with 9040 fluorescence intensity (a.u.).
